Taken from: PubChem BioAssay AID1259308 (NCATS, 2017)

- Purpose: 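Genes whose loss raises luciferase production in HEK293 cells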 (primary screen)
- System: human HEK293 embryonic kidney cells stably expressing firefly luciferase (HEK-CMV-Luc2-Hygro)
- Reagents: single siRNA against human genes, 0.8 pmol siRNA per well
- Timing: 72 h
- Measurement: 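Reporter luminescence and viable-cell signal on separate replicate plates, given as percent of non-targeting control and median/MAD z-scores, plus per-cell luciferase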
- Scale: total luciferase, z-score: higher = more reporter protein produced
- Call rule: 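Active when the median/MAD z-score for overall luciferase is greater than 3; a gene was taken forward for validation with new siRNAs if at least two of its three siRNAs passed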
- Calls: active = raised luciferase; inactive = no rise
Here is an unselected part of about 59,000 reagents tested. In the full data, about 1,510 (2.6%) were called active. 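Calls use total luciferase alone and ignore viability, so some active siRNAs may act by altering cell number.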 Reagents against one gene are numbered here. Further read-outs or replicates are left out here.

| Gene | reagent | total luciferase, z-score | outcome |
| --- | --- | --- | --- |
| RAP2B | 1 | 0.0965 | inactive |
| RAP2B | 2 | -0.49 | inactive |
| RAP2B | 3 | -0.272 | inactive |
| ITIH6 | 1 | -1.03 | inactive |
| ITIH6 | 2 | 0.458 | inactive |
| ITIH6 | 3 | -1.04 | inactive |
| RAPGEF6 | 1 | 0.908 | inactive |
| RAPGEF6 | 2 | 0.425 | inactive |
| RAPGEF6 | 3 | -0.137 | inactive |
| RFESD | 1 | -0.136 | inactive |
| RFESD | 2 | -0.409 | inactive |
| RFESD | 3 | -0.959 | inactive |
| ENKD1 | 1 | 0.811 | inactive |
| ENKD1 | 2 | -1.22 | inactive |
| ENKD1 | 3 | -1 | inactive |
| LAMC2 | 1 | 0.572 | inactive |
| LAMC2 | 2 | -0.0849 | inactive |
| LAMC2 | 3 | 1.41 | inactive |
| CBY2 | 1 | -1.12 | inactive |
| CBY2 | 2 | 1.08 | inactive |
| CBY2 | 3 | -1.76 | inactive |
| ZNF404 | 1 | 0.112 | inactive |
| ZNF404 | 2 | -0.527 | inactive |
| ZNF404 | 3 | 4.14 | active |
| CAMK2A | 1 | -1.42 | inactive |
| CAMK2A | 2 | 0.515 | inactive |
| CAMK2A | 3 | -0.213 | inactive |
| SNX33 | 1 | 6.77 | active |
| SNX33 | 2 | 0.221 | inactive |
| SNX33 | 3 | -2.28 | inactive |
| TMPO | 1 | -1.68 | inactive |
| TMPO | 2 | -0.144 | inactive |
| TMPO | 3 | -0.323 | inactive |
| CCNDBP1 | 1 | -0.501 | inactive |
| CCNDBP1 | 2 | 0.0379 | inactive |
| CCNDBP1 | 3 | -0.665 | inactive |
| DIXDC1 | 1 | -0.735 | inactive |
| DIXDC1 | 2 | 2.65 | inactive |
| DIXDC1 | 3 | -1.54 | inactive |
| LACC1 | 1 | -1.13 | inactive |
| LACC1 | 2 | -0.823 | inactive |
| LACC1 | 3 | -1.62 | inactive |
| AGFG2 | 1 | 4.89 | active |
| AGFG2 | 2 | -0.0276 | inactive |
| AGFG2 | 3 | -0.576 | inactive |
| CNTNAP3B | 1 | 2.21 | inactive |
| CNTNAP3B | 2 | 3.29 | active |
| CNTNAP3B | 3 | 2.92 | inactive |
| CNTNAP3B | 4 | -0.678 | inactive |
| CNTNAP3B | 5 | -0.408 | inactive |
| CNTNAP3B | 6 | -1.18 | inactive |
| POLR1HASP | 1 | 0.156 | inactive |
| POLR1HASP | 2 | -1.29 | inactive |
| POLR1HASP | 3 | 0.434 | inactive |
| LYRM4 | 1 | 0.754 | inactive |
| LYRM4 | 2 | -1.09 | inactive |
| LYRM4 | 3 | -0.478 | inactive |

Reformatted: 3 of the entries above.
Gene	reagent	total luciferase, z-score	outcome
DIXDC1	2	2.65	inactive
DIXDC1	3	-1.54	inactive
LACC1	1	-1.13	inactive
